Results reported in the supplement of paper PMC9233669.
Variants at the background level are over-represented here.

How the values were obtained:
[1] = tested on: biotinyl-Ile-oxazolone; assay: self-aminoacylation, catalytic enhancement (BIO) (fold over background); higher = more active; k-Seq, kA / k0A0; sequences stand for … in GGGAAUGGAUCCACAUCUACGAAUUC…UUCACUGCAGACUUGACGAAGCUG
Outline: (§1)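 The uncatalyzed rate is the low-activity peak of a bimodal Gaussian fit, and catalytic enhancement is median kA divided by it. The kA values came from pseudo-first-order fits, with 1000 bootstraps, of per-sequence fraction reacted measured by streptavidin capture, triplicate qPCR and Illumina sequencing. Mutagenized RNA pools with a 21-nt variable region (0.43 μM) were reacted with each biotinyl-aminoacyl-oxazolone at 2–1250 μM in 50 μL HEPES/NaCl/KCl/MgCl2/CaCl2 buffer with 5% acetonitrile, pH 6.9–7.0, for 90 minutes at room temperature.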

[2] = tested on: biotinyl-Val-oxazolone; assay: self-aminoacylation, catalytic enhancement (BVO) (fold over background); higher = more active; k-Seq, kA / k0A0; sequences stand for … in GGGAAUGGAUCCACAUCUACGAAUUC…UUCACUGCAGACUUGACGAAGCUG
Outline: as §1

[3] = tested on: biotinyl-Met-oxazolone; assay: self-aminoacylation, catalytic enhancement (BMO) (fold over background); higher = more active; k-Seq, kA / k0A0; sequences stand for … in GGGAAUGGAUCCACAUCUACGAAUUC…UUCACUGCAGACUUGACGAAGCUG
Outline: as §1

[4] = tested on: biotinyl-Leu-oxazolone; assay: self-aminoacylation, catalytic enhancement (BLO) (fold over background); higher = more active; k-Seq, kA / k0A0; sequences stand for … in GGGAAUGGAUCCACAUCUACGAAUUC…UUCACUGCAGACUUGACGAAGCUG
Outline: as §1

Sequence	self-aminoacylation [1]	self-aminoacylation [2]	self-aminoacylation [3]	self-aminoacylation [4]
AAACACUUCAAGCAAUCGGUC [Fam1B.1 aminoacylation ribozyme variant]	1.54	1.41	1.5	1.55
AAAUUUGCUAAUAGUCGCAAA [Fam3.1 aminoacylation ribozyme variant]	3.32			
AAAUUUGCUAAUAGUCGCAAG [Fam3.1 aminoacylation ribozyme variant]	1.79	1.54	1.58	1.53
AACUUUGCUAAUAGUCGCAAG [Fam3.1 aminoacylation ribozyme variant]		1.93		
AACUUUUCUAAUAGUCGCAAG [Fam3.1 aminoacylation ribozyme variant]	1.97	1.71	2.11	
AAGUAUGCUAAUAGUCGCGAG [Fam3.1 aminoacylation ribozyme variant]		1.68	1.7	
AAGUUCGCUAAUAGUCGCAAC [Fam3.1 aminoacylation ribozyme variant]	1.91	1.53		1.54
AAGUUUGCCAAUAGGCGCAAG [Fam3.1 aminoacylation ribozyme variant]	1.04	1.02		
AAGUUUGCUAAUAGUUGCAAU [Fam3.1 aminoacylation ribozyme variant]	1.26			
AAUACCCUGGUCAUCGAGUGG [Fam2.1 aminoacylation ribozyme variant]	1.64	1.83		
ACACGCUUCAAGCAAUCGGUC [Fam1B.1 aminoacylation ribozyme variant]	1.99	1.9	1.96	
AUAACUCUGGUCAUCGAGUGA [Fam2.1 aminoacylation ribozyme variant]	3.06	3.04		
AUACACCUAGGUCAACGGGUG [Fam2.2 aminoacylation ribozyme variant]	1.66	1.82		
AUGACCUUGGUCAUCGAGUGA [Fam2.1 aminoacylation ribozyme variant]	3.22	3.1		
AUUAACCUAGAUCAUCGGGUG [Fam2.2 aminoacylation ribozyme variant]	1.9	1.62		
AUUACACUGGUCAUCAAGUGA [Fam2.1 aminoacylation ribozyme variant]	1.48	1.6		
AUUACCCAGGUCAUCGUGUGA [Fam2.1 aminoacylation ribozyme variant]	1.87	1.98		
AUUACCCUAGACAUCGAGUGA [Fam2.1 aminoacylation ribozyme variant]	3.77	4.07		
AUUACCCUGCUCUUCGAGUGA [Fam2.1 aminoacylation ribozyme variant]	1.35	1.79		
AUUACCCUGGCCAACGAGUGA [Fam2.1 aminoacylation ribozyme variant]	1.77	1.94		

Sequence	self-aminoacylation [1]	self-aminoacylation [2]	self-aminoacylation [3]	self-aminoacylation [4]
AUUACCCUGGCCUUCGAGUGA [Fam2.1 aminoacylation ribozyme variant]	1.83			
AUUACCCUGGUCAUCGCGUCA [Fam2.1 aminoacylation ribozyme variant]	1.92			
AUUACCCUGGUUAUCAAGUGA [Fam2.1 aminoacylation ribozyme variant]	1.71	1.66		
AUUACCGUGGUGAUCGAGUGA [Fam2.1 aminoacylation ribozyme variant]	1.9			
AUUACCUUGGUCCUCGAGUGA [Fam2.1 aminoacylation ribozyme variant]	1.83			
AUUACUCUGGUCAUCGUGUGA [Fam2.1 aminoacylation ribozyme variant]	1.46	1.35		
AUUCACCAAGGUCAUCGGGGG [Fam2.2 aminoacylation ribozyme variant]		1.61		
AUUCACCUAAUUCAUCGGGUG [Fam2.2 aminoacylation ribozyme variant]	1.74	1.82		
AUUCACCUAGGACAACGGGUG [Fam2.2 aminoacylation ribozyme variant]	1.79	1.71		
AUUCACCUAGGGCAUCUGGUG [Fam2.2 aminoacylation ribozyme variant]	2.11	2.33		
AUUCACCUAGUUCAUCGGGUG [Fam2.2 aminoacylation ribozyme variant]	1.95			
AUUCACCUAUGUCAUGGGGUG [Fam2.2 aminoacylation ribozyme variant]	1.97			
AUUCCCCUAGGUCUUCGGGUG [Fam2.2 aminoacylation ribozyme variant]	13.7			
AUUCCCCUCGGUCAUCGGGUG [Fam2.2 aminoacylation ribozyme variant]	14.8	14	21.1	
AUUCUCCUACGUCAUCGGGUG [Fam2.2 aminoacylation ribozyme variant]	4.89	5.36	6.97	
AUUCUCCUGGUCAUCGAGUGA [Fam2.1 aminoacylation ribozyme variant]	3.67	3.89		
AUUUACCUAGUUCAUCGGGUG [Fam2.2 aminoacylation ribozyme variant]		1.9		
CCACACCUCAAGCAAUCGCUC [Fam1B.1 aminoacylation ribozyme variant]		1.75		
CCACCCUUCAAGCAAUCGGCC [Fam1B.1 aminoacylation ribozyme variant]	1.58		1.56	1.66
CCACUCUUCAAGCAAUAGGUC [Fam1B.1 aminoacylation ribozyme variant]	0.784	0.668		

Sequence	self-aminoacylation [1]	self-aminoacylation [2]	self-aminoacylation [3]	self-aminoacylation [4]
CCACUCUUCAAGCAAUCGGCC [Fam1B.1 aminoacylation ribozyme variant]	1.66		1.71	
CCCCACUUCAAACAAUCGGUC [Fam1B.1 aminoacylation ribozyme variant]	1.93		2	
CCCCACUUCAAGCAAUCGGUU [Fam1B.1 aminoacylation ribozyme variant]	2.66	3.68		
CCCCACUUCAAGUAAUCGGUC [Fam1B.1 aminoacylation ribozyme variant]	1.71	1.75	1.55	
CGACUUCAAACAAUCGGUGUG [Fam1A.1 aminoacylation ribozyme variant]	1.89	1.59	1.96	
CUAAUUCAAACAAUCGGUGUG [Fam1A.1 aminoacylation ribozyme variant]	0.75	0.659		
CUACUCCAAACAAUCCGUCUG [Fam1A.1 aminoacylation ribozyme variant]	0.838	0.821	0.636	
CUACUUAAAACAAUCGCUCUG [Fam1A.1 aminoacylation ribozyme variant]	0.623	0.727		
CUACUUCAAACAAUCUAUCUG [Fam1A.1 aminoacylation ribozyme variant]	0.507	0.579	0.461	
CUACUUCACACAGUCGGUCUG [Fam1A.1 aminoacylation ribozyme variant]	0.65	0.731		
CUACUUCAUAGAAUCGGUCUG [Fam1A.1 aminoacylation ribozyme variant]	0.783	0.749	0.75	
CUACUUGAAACAAUCGGACUG [Fam1A.1 aminoacylation ribozyme variant]	0.922	0.786		
CUAGUUCAAAAAAUCGGUCUG [Fam1A.1 aminoacylation ribozyme variant]	0.934	0.752		
CUUACCCUGGUCAUCGAGUCA [Fam2.1 aminoacylation ribozyme variant]	0.742	1.07	0.897	
CUUCACCUAGCUCAUCGGGUG [Fam2.2 aminoacylation ribozyme variant]	1.76	2.37		
GCACACUUCAAACAAUCGGUC [Fam1B.1 aminoacylation ribozyme variant]	1.98			
GUUCACCUAGGUCAUAGGGUG [Fam2.2 aminoacylation ribozyme variant]	1.59	1.4	1.5	
GUUCACCUUGGUCAUCGGGUG [Fam2.2 aminoacylation ribozyme variant]	3.45			
GUUCAUCUAGGUCAUCGGGUG [Fam2.2 aminoacylation ribozyme variant]	4.19	3.72	5.79	
UUUACCCUGGUCAUCGAGUUA [Fam2.1 aminoacylation ribozyme variant]	3.03			
